# Measured data: PubChem BioAssay AID504764 (Drosophila RNAi Screening Center, 2011)
# Screen: 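Knock-downs that raise or lower a Notch target reporter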 (primary screen)
# Cells: Drosophila Kc167 cells
# Reagents: long dsRNA against Drosophila genes
# Timing: about 5 days (4 days dsRNA, then 24 h after transfection)
# Treatment: transfection of constitutively active membrane-tethered Notch lacking the extracellular domain, read 24 h later
# Detection: 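Light from a Notch-responsive E(spl)m3 luciferase reporter under active Notch, with control-promoter and no-Notch reporter wells to normalise; raw counts from paired wells a and b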
# Reading the numbers: induced reporter light, run 1, well a and induced reporter light, run 1, well b: higher = more light from the Notch target reporter with active Notch; control promoter light, run 1, well a and control promoter light, run 1, well b: higher = more light from the viral control promoter (cell number, transfection, viability); uninduced reporter light, run 1, well a: higher = more light from the Notch target reporter without active Notch
# Active means: 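Hit if the duplicate-averaged log2 ratio of induced to control-promoter light gives a plate-wise z beyond ±2, or induced to uninduced beyond ±1.8; weak-control or discordant-duplicate wells dropped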
# Meaning of the calls: active = modifier hit (raised or lowered Notch signal); inactive = not a hit
# The deposit covers about 22,000 reagents; shown is an unselected part of those that have a named target and a result. Over the whole deposit, 403 (1.9%) are marked active. 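Unnormalised raw counts per well; ratio z-scores behind the hit calls and whether each hit raises or lowers signal are not deposited.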 Reagents against one gene are numbered here. Names joined by + are all predicted targets of the reagent. Not given: the amount of reagent.
gene,reagent no.,"induced reporter light, run 1, well a","induced reporter light, run 1, well b","control promoter light, run 1, well a","control promoter light, run 1, well b","uninduced reporter light, run 1, well a",Call
Mcm10 (GeneID 35390),1,1.77e5,1.81e5,1.26e5,1.34e5,15515,inactive
iotaTry (GeneID 36223),1,99000,96945,1.24e5,1.13e5,8490,inactive
CG8314 (GeneID 36757),1,1.15e5,1.35e5,2.16e5,2.51e5,9845,inactive
Mhc (GeneID 35007),1,1.30e5,1.31e5,1.51e5,1.73e5,11432,inactive
CG34006 (retired record) (GeneID 3885652),1,2.03e5,1.90e5,2.12e5,2.41e5,15315,inactive
Rrp4 (GeneID 37731),1,1.77e5,1.59e5,1.46e5,1.72e5,12060,inactive
pad (GeneID 41981),1,1.87e5,2.19e5,1.79e5,1.91e5,16920,inactive
nAChRbeta3 (GeneID 33228),1,2.04e5,2.14e5,2.29e5,2.10e5,17870,inactive
CR42745 (retired record) (GeneID 10178802),1,1.96e5,2.04e5,2.18e5,2.58e5,16325,inactive
FANCI (GeneID 35895),1,1.84e5,2.02e5,2.19e5,2.32e5,14665,inactive
CG3698 (GeneID 40298),1,1.22e5,1.70e5,87400,1.01e5,9645,inactive
CG9849 (GeneID 37647),1,2.25e5,1.78e5,1.64e5,1.81e5,16395,inactive
Spt7 (GeneID 32766),1,1.86e5,2.01e5,1.50e5,1.01e5,14550,inactive
CG14340 (GeneID 33287),1,1.30e5,1.10e5,96675,57040,7832,inactive
sick (GeneID 35277),1,62450,39490,53175,41205,2670,inactive
sick (GeneID 35277),2,61085,54215,55155,1.01e5,4015,inactive
sick (GeneID 35277),3,61630,50775,64320,83935,3810,inactive
sick (GeneID 35277),4,79945,52535,70895,52195,5095,inactive
sick (GeneID 35277),5,64150,52140,70775,65035,5700,inactive
Lerp (GeneID 43223),1,58375,59645,44140,46205,9792,inactive
Lerp (GeneID 43223),2,1.67e5,1.55e5,2.76e5,2.28e5,15855,inactive
Lerp (GeneID 43223),3,1.69e5,1.51e5,2.19e5,1.91e5,15425,inactive
Lerp (GeneID 43223),4,1.67e5,1.30e5,1.73e5,1.69e5,11878,inactive

Records listed so far whose target name begins with M or m:
gene,reagent no.,"induced reporter light, run 1, well a","induced reporter light, run 1, well b","control promoter light, run 1, well a","control promoter light, run 1, well b","uninduced reporter light, run 1, well a",Call
Mcm10 (GeneID 35390),1,1.77e5,1.81e5,1.26e5,1.34e5,15515,inactive
Mhc (GeneID 35007),1,1.30e5,1.31e5,1.51e5,1.73e5,11432,inactive

Further reagents:
gene,reagent no.,"induced reporter light, run 1, well a","induced reporter light, run 1, well b","control promoter light, run 1, well a","control promoter light, run 1, well b","uninduced reporter light, run 1, well a",Call
Utx (GeneID 34377),1,98835,1.24e5,58935,77135,12750,inactive
ninaG (GeneID 41369),1,68410,70535,54620,43085,5540,inactive
CG11034 (GeneID 33810),1,1.52e5,1.59e5,2.13e5,1.74e5,10635,inactive
CG11034 (GeneID 33810),2,1.37e5,1.27e5,1.61e5,1.66e5,9365,inactive
Surf4 (GeneID 41864),1,2.18e5,2.07e5,1.99e5,1.62e5,20700,inactive
SkpF + CG5357 (retired record),1,1.96e5,1.66e5,1.86e5,1.82e5,11920,inactive
I-2 (GeneID 39156),1,43790,70495,53720,76325,3995,inactive
CG17364 (GeneID 39543),1,1.50e5,99185,1.95e5,1.31e5,8185,inactive
CG17364 (GeneID 39543),2,1.33e5,1.37e5,1.60e5,1.38e5,10310,inactive
CG31406 (GeneID 318715),1,1.71e5,1.50e5,1.46e5,1.37e5,11660,inactive
PGRP-LC (GeneID 39063),1,1.75e5,1.49e5,2.09e5,1.98e5,13335,inactive
PGRP-LC (GeneID 39063),2,2.37e5,1.97e5,3.54e5,2.42e5,9195,inactive
PGRP-LC (GeneID 39063),3,2.34e5,1.94e5,3.02e5,2.81e5,10388,inactive
IntS8 (GeneID 36886),1,57550,58920,51650,50815,8400,inactive
Pak3 (GeneID 41995),1,1.24e5,1.29e5,1.27e5,1.47e5,13195,inactive
l(2)k09022 (GeneID 33960),1,1.56e5,1.78e5,1.80e5,2.13e5,14275,inactive
Ddx1 (GeneID 40457),1,1.66e5,1.76e5,94475,1.07e5,9785,inactive
CG11191 (GeneID 35765),1,1.20e5,1.15e5,92515,84345,11255,inactive
CG6912 (GeneID 41820),1,2.23e5,2.68e5,2.24e5,2.64e5,20220,inactive
CG34355 (GeneID 42820),1,1.93e5,1.88e5,1.34e5,1.75e5,14700,inactive
CG34355 (GeneID 42820),2,1.80e5,1.56e5,1.93e5,1.64e5,12535,inactive
CG34355 (GeneID 42820),3,1.46e5,1.71e5,1.88e5,1.58e5,11820,inactive
CG42361 (GeneID 37936),1,1.84e5,1.61e5,1.61e5,1.63e5,11440,inactive
chn (GeneID 36678),1,1.57e5,1.47e5,1.33e5,1.34e5,10945,inactive
Alg12 (GeneID 41191),1,85250,1.10e5,89210,63065,5095,inactive
CG31517 (GeneID 251711),1,1.01e5,1.21e5,1.45e5,1.17e5,9750,inactive
CG17660 (GeneID 33347),1,2.15e5,2.25e5,2.21e5,2.20e5,17220,inactive
